Like-named read-outs stand apart in the source and are kept apart here. Results are given in words; binding and its absence hold for the method and conditions named. In cells and extracts the contact can be indirect. Some binding calls cover weakened binding; strength is not graded here. Where a sequence is shown, tags or fusion partners need not be part of it. One block for each molecule: values may come before it.
What was measured:
[1] = target: T1, NBR1 fused to a YFP half (BiFC) (Arabidopsis thaliana) (UniProt Q9SB64); test: split reporter; BiFC with YFP halves (2in1 vectors) in agro-infiltrated Nicotiana benthamiana leaves, confocal microscopy 2 d after infiltration
T1 sequence: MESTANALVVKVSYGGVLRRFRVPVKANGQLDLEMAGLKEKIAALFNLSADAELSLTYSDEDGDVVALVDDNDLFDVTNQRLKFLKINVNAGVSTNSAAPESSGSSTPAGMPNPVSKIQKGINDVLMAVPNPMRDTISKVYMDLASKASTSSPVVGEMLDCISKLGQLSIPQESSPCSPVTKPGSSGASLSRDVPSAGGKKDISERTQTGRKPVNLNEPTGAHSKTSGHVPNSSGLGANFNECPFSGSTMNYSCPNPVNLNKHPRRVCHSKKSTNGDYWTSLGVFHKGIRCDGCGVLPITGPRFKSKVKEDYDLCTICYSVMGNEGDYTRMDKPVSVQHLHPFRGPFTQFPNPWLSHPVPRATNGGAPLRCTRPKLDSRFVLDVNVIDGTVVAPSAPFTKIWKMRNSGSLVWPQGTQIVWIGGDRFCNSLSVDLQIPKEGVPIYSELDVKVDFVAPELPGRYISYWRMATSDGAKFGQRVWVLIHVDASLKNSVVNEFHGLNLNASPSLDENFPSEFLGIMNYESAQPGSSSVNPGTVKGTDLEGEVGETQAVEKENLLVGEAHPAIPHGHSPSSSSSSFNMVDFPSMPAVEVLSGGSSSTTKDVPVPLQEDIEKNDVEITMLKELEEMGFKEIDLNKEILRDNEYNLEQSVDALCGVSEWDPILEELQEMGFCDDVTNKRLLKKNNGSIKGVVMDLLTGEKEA

Amino acid sequences for entries named in this document (tags omitted).
UniProt P27323: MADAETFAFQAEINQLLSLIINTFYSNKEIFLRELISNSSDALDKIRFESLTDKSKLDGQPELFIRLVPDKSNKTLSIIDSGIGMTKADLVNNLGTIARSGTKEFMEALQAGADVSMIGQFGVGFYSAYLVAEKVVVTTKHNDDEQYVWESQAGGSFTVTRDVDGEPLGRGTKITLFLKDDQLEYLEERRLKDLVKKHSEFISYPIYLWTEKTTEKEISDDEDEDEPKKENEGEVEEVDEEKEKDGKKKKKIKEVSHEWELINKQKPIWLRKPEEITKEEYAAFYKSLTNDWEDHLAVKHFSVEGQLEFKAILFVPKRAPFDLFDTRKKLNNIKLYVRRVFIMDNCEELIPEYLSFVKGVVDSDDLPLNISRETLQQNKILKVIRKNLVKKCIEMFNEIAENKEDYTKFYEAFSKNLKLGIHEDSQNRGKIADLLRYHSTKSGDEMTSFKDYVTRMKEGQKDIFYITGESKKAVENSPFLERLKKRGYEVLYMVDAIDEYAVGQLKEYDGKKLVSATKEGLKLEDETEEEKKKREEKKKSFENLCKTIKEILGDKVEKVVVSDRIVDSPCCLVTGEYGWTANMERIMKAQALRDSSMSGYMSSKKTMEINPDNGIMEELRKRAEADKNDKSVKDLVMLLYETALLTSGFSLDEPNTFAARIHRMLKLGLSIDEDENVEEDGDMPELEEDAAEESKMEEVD
UniProt Q38931: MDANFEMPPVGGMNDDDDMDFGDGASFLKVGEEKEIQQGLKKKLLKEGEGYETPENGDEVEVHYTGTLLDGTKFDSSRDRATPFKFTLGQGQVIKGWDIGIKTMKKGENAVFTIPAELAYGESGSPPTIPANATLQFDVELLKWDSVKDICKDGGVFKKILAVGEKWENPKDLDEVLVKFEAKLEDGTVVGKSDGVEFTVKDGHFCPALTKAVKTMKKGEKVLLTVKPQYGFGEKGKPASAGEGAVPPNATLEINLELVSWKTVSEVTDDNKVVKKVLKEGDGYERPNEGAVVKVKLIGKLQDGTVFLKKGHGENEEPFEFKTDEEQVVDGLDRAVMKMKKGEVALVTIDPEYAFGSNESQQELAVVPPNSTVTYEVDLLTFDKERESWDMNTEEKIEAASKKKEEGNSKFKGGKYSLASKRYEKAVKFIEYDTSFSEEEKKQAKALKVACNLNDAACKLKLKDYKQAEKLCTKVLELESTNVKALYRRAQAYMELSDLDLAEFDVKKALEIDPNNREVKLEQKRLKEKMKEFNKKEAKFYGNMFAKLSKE

[2] = target: T2, GFP-ATG8a (Arabidopsis thaliana) (UniProt Q8LEM4); test: co-IP; anti-GFP antibody microbeads (Miltenyi) on total protein extracts of primed, cross-linked GFP-ATG8a or GFP seedlings, 2 d into the HS recovery phase; 50 mM Tris-HCl pH 7.5, 150 mM NaCl, 2% Tween-20; 6 h at 4°C; immunoblot
T2 sequence: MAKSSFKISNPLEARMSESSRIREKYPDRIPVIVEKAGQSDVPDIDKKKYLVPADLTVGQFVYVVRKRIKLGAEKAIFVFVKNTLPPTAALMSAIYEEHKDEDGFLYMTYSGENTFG

[3] = target: T2, GFP-ATG8a (Arabidopsis thaliana); test: as above; remark: listed apart in the source
[4] = target: T3, NBR1-GFP (Arabidopsis thaliana) (UniProt Q9SB64); test: co-IP; anti-GFP antibody beads on total protein extracts of primed, cross-linked pNBR1:NBR1-GFP or 35S:GFP seedlings, 2 d into the HS recovery phase; immunoblot with anti-HSP90 and anti-FBP antibodies
T3 sequence: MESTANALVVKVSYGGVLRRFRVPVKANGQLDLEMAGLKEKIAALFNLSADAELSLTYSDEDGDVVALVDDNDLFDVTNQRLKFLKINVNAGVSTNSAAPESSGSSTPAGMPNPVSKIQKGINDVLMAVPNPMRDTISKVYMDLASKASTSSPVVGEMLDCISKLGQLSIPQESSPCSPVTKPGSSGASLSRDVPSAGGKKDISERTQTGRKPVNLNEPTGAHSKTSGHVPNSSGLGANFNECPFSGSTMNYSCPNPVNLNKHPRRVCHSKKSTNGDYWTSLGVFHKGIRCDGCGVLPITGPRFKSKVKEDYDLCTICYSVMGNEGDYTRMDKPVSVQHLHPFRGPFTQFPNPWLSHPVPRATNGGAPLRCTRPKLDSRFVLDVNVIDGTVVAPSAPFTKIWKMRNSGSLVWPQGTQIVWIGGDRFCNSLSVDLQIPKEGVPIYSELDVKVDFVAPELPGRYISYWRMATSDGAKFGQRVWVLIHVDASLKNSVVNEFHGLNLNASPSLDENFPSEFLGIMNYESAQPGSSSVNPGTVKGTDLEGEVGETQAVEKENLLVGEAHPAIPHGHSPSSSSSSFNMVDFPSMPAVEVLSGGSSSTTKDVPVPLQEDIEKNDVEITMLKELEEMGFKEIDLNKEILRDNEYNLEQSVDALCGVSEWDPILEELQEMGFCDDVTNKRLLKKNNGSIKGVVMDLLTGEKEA

binding [1]: binds
Molecule: HSP90.1 fused to a YFP half (BiFC) (from UniProt P27323 1-700)

binding [1]: binds
Molecule: ROF1 fused to a YFP half (BiFC) (from UniProt Q38931 1-551)

binding [2]: binds
Molecule: ROF1-RFP (from UniProt Q38931 1-551)

binding [3]: no binding
binding [4]: no binding
B1: FBP/FBPASE (fructose 1,6-bisphosphatase) (protein, UniProt Q9MA79 1-341)
chain: MDHAADAHRTDLMTITRFVLNEQSKYPESRGDFTILLSHIVLGCKFVCSAVNKAGLAKLIGLAGETNIQGEEQKKLDVLSNDVFVNALVSSGRTSVLVSEEDEEATFVEPSKRGKYCVVFDPLDGSSNIDCGVSIGTIFGIYTLDHTDEPTTADVLKPGNEMVAAGYCMYGSSCMLVLSTGTGVHGFTLDPSLGEFILTHPDIKIPNKGNIYSVNEGNAQNWDGPTTKYVEKCKFPKDGSPAKSLRYVGSMVADVHRTLLYGGIFLYPADKKSPNGKLRVLYEVFPMSFLMEQAGGQAFTGKKRALDLVPEKIHERSPIFLGSYDDVEEIKALYAEEEKKN

— article PMC8496721
